Source: PubChem BioAssay AID1259308 (NCATS, 2017)
Here is one part, drawn at random, of about 59,000 reagents. About 1,510 of them (2.6%) were called active. 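Calls use total luciferase alone and ignore viability, so some active siRNAs may act by altering cell number.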 Reagents against one gene are numbered here.

Assay: 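Genes whose loss raises luciferase production in HEK293 cells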 (primary screen)
Cell system: human HEK293 embryonic kidney cells stably expressing firefly luciferase (HEK-CMV-Luc2-Hygro)
Reagents: single siRNA against human genes, 0.8 pmol siRNA per well
Timing: 72 h
Measurement: 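Reporter luminescence and viable-cell signal on separate replicate plates, given as percent of non-targeting control and median/MAD z-scores, plus per-cell luciferase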
Direction: total luciferase, z-score and total luciferase, % of control: higher = more reporter protein produced; luciferase per cell, z-score: higher = more reporter output per viable cell; viable cells, % of control: higher = more viable cells
Rule for the call: 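Active when the median/MAD z-score for overall luciferase is greater than 3; a gene was taken forward for validation with new siRNAs if at least two of its three siRNAs passed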
Meaning of the calls: active = raised luciferase; inactive = no rise

| target gene | siRNA no. | total luciferase, z-score | total luciferase, % of control | luciferase per cell, z-score | viable cells, % of control | Call |
| --- | --- | --- | --- | --- | --- | --- |
| FAM120C (GeneID 54954) | 1 | 0.357 | 89 | 0.751 | 81.6 | inactive |
| FAM120C (GeneID 54954) | 2 | -1.08 | 60.4 | -0.831 | 84 | inactive |
| FAM120C (GeneID 54954) | 3 | 0.22 | 86.3 | -0.0802 | 98.5 | inactive |
| ZNF2 (GeneID 7549) | 1 | -0.928 | 63.4 | -0.737 | 86.1 | inactive |
| ZNF2 (GeneID 7549) | 2 | -1.18 | 58.3 | -1.53 | 97.4 | inactive |
| ZNF2 (GeneID 7549) | 3 | -0.888 | 64.2 | -0.55 | 83 | inactive |
| SMIM26 (GeneID 388789) | 1 | -0.224 | 77.4 | -0.521 | 99.2 | inactive |
| SMIM26 (GeneID 388789) | 2 | 1.59 | 114 | 1.26 | 91.1 | inactive |
| SMIM26 (GeneID 388789) | 3 | -0.384 | 74.3 | -0.286 | 89.5 | inactive |
| MRC2 (GeneID 9902) | 1 | 0.203 | 85.9 | 0.911 | 75.5 | inactive |
| MRC2 (GeneID 9902) | 2 | -0.165 | 78.6 | -0.00547 | 88 | inactive |
| MRC2 (GeneID 9902) | 3 | -2.41 | 33.9 | -0.906 | 48.1 | inactive |
| DEMA1 (GeneID 339804) | 1 | -0.728 | 67.4 | 0.0219 | 74.9 | inactive |
| DEMA1 (GeneID 339804) | 2 | 1.88 | 119 | 1.41 | 92 | inactive |
| DEMA1 (GeneID 339804) | 3 | -0.135 | 79.2 | -0.814 | 110 | inactive |
| EIF2B3 (GeneID 8891) | 1 | -0.282 | 76.3 | 0.138 | 82.2 | inactive |
| EIF2B3 (GeneID 8891) | 2 | 0.793 | 97.7 | -0.0217 | 110 | inactive |
| EIF2B3 (GeneID 8891) | 3 | -1.46 | 52.8 | -2.04 | 101 | inactive |
| ANGEL2 (GeneID 90806) | 1 | 2.3 | 128 | 3.71 | 53.6 | inactive |
| ANGEL2 (GeneID 90806) | 2 | -0.0139 | 81.6 | -0.279 | 98.2 | inactive |
| ANGEL2 (GeneID 90806) | 3 | -1.57 | 50.6 | -2.31 | 104 | inactive |
| SHISA6 (GeneID 388336) | 1 | -1.66 | 48.9 | 0.271 | 50.9 | inactive |
| SHISA6 (GeneID 388336) | 2 | 1.82 | 118 | 1.25 | 95 | inactive |
| SHISA6 (GeneID 388336) | 3 | -0.283 | 76.3 | -0.77 | 104 | inactive |
| ZNF556 (GeneID 80032) | 1 | 5.22 | 186 | 3.51 | 82.3 | active |
| ZNF556 (GeneID 80032) | 2 | 0.252 | 86.9 | -0.0592 | 98.6 | inactive |
| ZNF556 (GeneID 80032) | 3 | -0.227 | 77.4 | -0.382 | 95.6 | inactive |
| KCNA1 (GeneID 3736) | 1 | -0.565 | 70.7 | -0.261 | 84.6 | inactive |
| KCNA1 (GeneID 3736) | 2 | 0.0846 | 83.6 | -0.125 | 96.5 | inactive |
| KCNA1 (GeneID 3736) | 3 | 1.22 | 106 | 0.467 | 105 | inactive |
| ARHGAP19 (GeneID 84986) | 1 | -1.32 | 55.5 | -1.31 | 87.7 | inactive |
| ARHGAP19 (GeneID 84986) | 2 | -0.75 | 67 | -0.862 | 93.9 | inactive |
| ARHGAP19 (GeneID 84986) | 3 | 0.00771 | 82 | -0.268 | 98.4 | inactive |
| KNG1 (GeneID 3827) | 1 | -0.441 | 73.1 | -0.556 | 94.6 | inactive |
| KNG1 (GeneID 3827) | 2 | -1.32 | 55.7 | -0.568 | 72.3 | inactive |
| KNG1 (GeneID 3827) | 3 | -0.924 | 63.5 | -1.19 | 97.2 | inactive |
| ARHGAP5-AS1 (GeneID 84837) | 1 | 1.9 | 120 | 1.86 | 81.9 | inactive |
| ARHGAP5-AS1 (GeneID 84837) | 2 | -1.94 | 43.2 | -2.04 | 82.5 | inactive |
| ARHGAP5-AS1 (GeneID 84837) | 3 | 0.0388 | 82.7 | 0.162 | 88.5 | inactive |
| ARMC5 (GeneID 79798) | 1 | 0.216 | 86.2 | 0.533 | 83.7 | inactive |
| ARMC5 (GeneID 79798) | 2 | 0.559 | 93 | 0.391 | 93.8 | inactive |
| ARMC5 (GeneID 79798) | 3 | 0.68 | 95.4 | 0.301 | 98.5 | inactive |
| PRPF18 (GeneID 8559) | 1 | -1.03 | 61.3 | 0.368 | 62.2 | inactive |
| PRPF18 (GeneID 8559) | 2 | -1.86 | 44.9 | -0.458 | 56.7 | inactive |
| PRPF18 (GeneID 8559) | 3 | -0.527 | 71.4 | 0.24 | 74.9 | inactive |
| CTTN (GeneID 2017) | 1 | -0.777 | 66.4 | -1.24 | 103 | inactive |
| CTTN (GeneID 2017) | 2 | -0.695 | 68.1 | -0.746 | 92.6 | inactive |
| CTTN (GeneID 2017) | 3 | -0.745 | 67.1 | -0.723 | 90.7 | inactive |
| AOC1 (GeneID 26) | 1 | 0.4 | 89.8 | -0.441 | 113 | inactive |
| AOC1 (GeneID 26) | 2 | 0.833 | 98.5 | 0.72 | 91 | inactive |
| AOC1 (GeneID 26) | 3 | 4.54 | 172 | 3.2 | 82.9 | active |
| XRRA1 (GeneID 143570) | 1 | -0.233 | 77.3 | 0.0836 | 84.5 | inactive |
| XRRA1 (GeneID 143570) | 2 | -0.218 | 77.6 | 0.358 | 78.9 | inactive |
| XRRA1 (GeneID 143570) | 3 | 0.46 | 91 | 0.0438 | 101 | inactive |
| IL2 (GeneID 3558) | 1 | -0.378 | 74.4 | 0.113 | 80.7 | inactive |
| IL2 (GeneID 3558) | 2 | -0.141 | 79.1 | 0.122 | 85.6 | inactive |
| IL2 (GeneID 3558) | 3 | 1.46 | 111 | 1.05 | 94 | inactive |
